Assay results published in patent publication US20080267971A1.
No constants are given. Whether binding was seen depends on the method and setting. Some binding calls cover weakened binding; strength is not graded here.

The chains behind the UniProt entries cited, without tags or fusion partners. Where a name states a change or a piece, a line headed by the entry shows the natural chain unless it says otherwise.
UniProt O35608: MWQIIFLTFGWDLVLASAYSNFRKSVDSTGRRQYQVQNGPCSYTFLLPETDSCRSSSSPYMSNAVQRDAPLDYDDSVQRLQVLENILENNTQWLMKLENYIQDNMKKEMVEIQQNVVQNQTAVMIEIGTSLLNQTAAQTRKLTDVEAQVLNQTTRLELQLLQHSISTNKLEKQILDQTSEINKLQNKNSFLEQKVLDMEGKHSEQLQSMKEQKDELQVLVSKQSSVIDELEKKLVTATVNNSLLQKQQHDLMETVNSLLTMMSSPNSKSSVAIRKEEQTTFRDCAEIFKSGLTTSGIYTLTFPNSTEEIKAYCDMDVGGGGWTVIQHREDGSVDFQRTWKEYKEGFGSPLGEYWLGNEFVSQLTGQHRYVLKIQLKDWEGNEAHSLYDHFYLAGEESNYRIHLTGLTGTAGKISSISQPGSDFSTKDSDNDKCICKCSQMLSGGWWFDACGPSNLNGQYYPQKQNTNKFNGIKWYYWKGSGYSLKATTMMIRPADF

What was measured:
[1] = target: Mouse/Human Ang-2 StuI chimeric molecule (mouse; human) (UniProt O35608); test: ELISA
[2] = target: Mouse/Human chimeric Ang-2 with the human StuI-TfiI fragment (mouse/human chimera) (UniProt O35608); test: ELISA

binding [1]: binds
binding [2]: binds
B1: mAb 5.28.1 (antibody, V domains shown)
VH: EVQLVESGGIVVQPGGSLRLSCAASGFTFDDYTMHWVRQTPGKGLEWVSLISWDGGSTYYADSVKGRFTISRDNSKNSLYLQMNSLRTEDTALYYCAKDIDIAVAGTGFDHWGQGTLVTVSS
VL: EIVMTQSPATLSVSPGERATLSCRASQSVTSNLAWYQQKPGQAPRLLIYGALIRATGIPARFSGSGSGTEFTLTISSLQSEDFAVYYCQQYNNWPFTFGPGTKVDIKR
